Results on 1 sequence are retold here after patent publication US20080213860.

Where a chain is given by its changes, count along the chain named. Construct, isoform or probe ends are uncertain for at least one entry. For some of these results: The comparison behind a weaker result is the experiment's own reference, which may not be listed here. Where a protein sequence is shown, tags need not be part of it.

Assay in all cases: enzyme reaction in vitro
Data set [1] concerns T1, BsmI R364D (Bacillus stearothermophilus NUB36).
T1 sequence: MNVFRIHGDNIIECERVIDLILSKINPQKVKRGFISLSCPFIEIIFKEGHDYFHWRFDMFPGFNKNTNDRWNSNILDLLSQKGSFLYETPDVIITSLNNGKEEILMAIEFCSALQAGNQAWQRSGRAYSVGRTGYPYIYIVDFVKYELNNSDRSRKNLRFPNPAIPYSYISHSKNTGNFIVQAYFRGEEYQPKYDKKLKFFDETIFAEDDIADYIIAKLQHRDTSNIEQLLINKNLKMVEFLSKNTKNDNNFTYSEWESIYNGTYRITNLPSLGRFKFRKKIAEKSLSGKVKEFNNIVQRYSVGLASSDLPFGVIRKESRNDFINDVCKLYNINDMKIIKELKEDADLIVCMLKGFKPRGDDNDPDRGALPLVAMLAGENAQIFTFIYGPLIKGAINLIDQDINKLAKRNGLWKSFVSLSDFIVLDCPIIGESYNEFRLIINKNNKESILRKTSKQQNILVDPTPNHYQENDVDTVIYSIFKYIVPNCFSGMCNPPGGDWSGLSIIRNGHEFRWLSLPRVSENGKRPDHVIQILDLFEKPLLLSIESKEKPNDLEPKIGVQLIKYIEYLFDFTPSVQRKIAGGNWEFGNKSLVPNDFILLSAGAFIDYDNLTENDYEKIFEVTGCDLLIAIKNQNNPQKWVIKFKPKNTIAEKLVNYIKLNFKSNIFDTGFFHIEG
To be noted: low nicking activity; protein in an extract; only the site is given.

In data set [2] the test system is T2, BsmI R451D (Bacillus stearothermophilus NUB36).
T2 sequence: T1 sequence with D364R, R451D
To be noted: ds-DNA cleavage; protein in an extract; only the site is given.

For data set [3], the system named is T3, BsmI R16D (Bacillus stearothermophilus NUB36).
T3 sequence: T1 sequence with R16D, D364R
The conditions noted are these: ds-DNA cleavage; protein in an extract; only the site is given.

Data set [4] has as its system T4, BsmI R300D (Bacillus stearothermophilus NUB36).
T4 sequence: T1 sequence with R300D, D364R
The conditions noted are these: ds-DNA cleavage; protein in an extract; only the site is given.

With “GCATTC [pBR322 supercoiled plasmid (one BsmI site)]”, the “activity on this sequence” value was “less active” in data set [1], “active” in data set [2], “active” in data set [3] and “active” in data set [4].
